For one substance, binding results are on record in PMC6488628.

This assay addresses T1, MmOnzin (Onzin from Mus musculus) (Mus musculus) (UniProt Q9JI48).
T1 sequence: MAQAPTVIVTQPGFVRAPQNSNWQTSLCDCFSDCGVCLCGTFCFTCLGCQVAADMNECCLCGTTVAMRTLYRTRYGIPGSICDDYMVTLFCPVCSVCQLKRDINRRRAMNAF
Put plainly: two-hybrid; DupLEX-A yeast system (Origene); LexA DNA-binding domain fusion and B42 activator domain fusion; media and growth as in ref. 19.

Results are given in words; binding and its absence hold for the method and conditions named. A result given as binding can be weak or reduced; the word gives no strength.

For “C-terminal region of MLH3 from Mus musculus (domain or fragment)”, the binding result is recorded as “binds”.
